Assay results from US9902759B2, “BH3 peptides and methods of use thereof” (Dana-Farber Cancer Institute, Inc., priority 2002, dated 2018).
For some of these results: At least one peptide structure holds a part that was inferred or is arguable (an end, a ring closure or a residue). For some of these results: For at least one compound, name, drawing or mass did not settle the structure. Ends that are not written are not given here.

Protein sequences, listed by entry. Tags and fused reporters are not part of them. Residues count along the entry.
UniProt P10415, 1-218 limits assumed: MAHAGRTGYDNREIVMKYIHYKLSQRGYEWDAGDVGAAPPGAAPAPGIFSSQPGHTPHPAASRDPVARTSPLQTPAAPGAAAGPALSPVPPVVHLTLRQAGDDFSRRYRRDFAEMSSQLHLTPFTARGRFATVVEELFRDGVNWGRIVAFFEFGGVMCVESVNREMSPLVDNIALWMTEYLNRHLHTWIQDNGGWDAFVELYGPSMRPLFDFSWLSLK
UniProt Q07820, whole entry, species assumed: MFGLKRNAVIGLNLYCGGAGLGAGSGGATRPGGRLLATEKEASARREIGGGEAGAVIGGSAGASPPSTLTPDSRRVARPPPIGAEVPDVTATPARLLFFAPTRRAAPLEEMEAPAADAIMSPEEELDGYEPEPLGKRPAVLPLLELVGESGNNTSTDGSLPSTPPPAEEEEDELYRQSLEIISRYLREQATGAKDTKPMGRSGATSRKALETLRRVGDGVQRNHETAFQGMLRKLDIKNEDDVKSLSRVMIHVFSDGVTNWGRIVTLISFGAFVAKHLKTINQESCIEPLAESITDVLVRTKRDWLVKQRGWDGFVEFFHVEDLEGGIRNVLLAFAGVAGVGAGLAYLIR

Key:
GST-BCL-2 [1] = biological target: T1, GST-BCL-2 (Homo sapiens, UniProt P10415); assay: BH3 peptide displacement from GST-BCL-2 by fluorescence polarization; assay type: binding
T1 construct: a GST-BCL-2 fusion protein lacking the C-terminal transmembrane domain was utilized; made in house; host or cells: E. coli BL21 DE3
Description: (§1) To determine Kd for peptide binding to BCL-2, a GST-BCL-2 fusion protein lacking the C-terminal transmembrane domain was utilized. Peptides were synthesized with a fluorescein amino-terminus using an AHA linker. […] An increase in fluorescence polarization measured on a Perkin-Elmer LS 50B luminescence spectrophotometer was quantitated to calculate binding. A non-linear fit to a sigmoidal dose-response curve utilized the program Origin 6.0 to determine Kd. […] Data were fitted to a sigmoidal curve as above, and IC50 determined.
(§2) GST-BCL-2δC21 fusion proteins were induced in BL21 DE3 by 0.1 mM IPTG. The bacterial pellets were resuspended in lysis buffer (1 mg/ml lysozyme/1% Triton X-100/0.1 mg/ml PMSF/2 μg/ml aprotinin/2 μg/ml leupeptine/1 μg/ml pepstatin A in PBS) and sonicated. After centrifugation at 20,000×g for 20 min, the supernatant was applied to glutathione-agarose beads (Sigma). The beads were washed with PBS and treated with 50 mM glutathione/50 mM TrisHCl, pH8.0 to elute protein. Eluate was dialyzed against binding buffer and concentrated using Amicon centrifugal concentrating devices.

GST-BCL-2 [2] = biological target: T1, GST-BCL-2; assay: Fluorescence polarization binding of fluoresceinated BH3 peptides to GST-BCL-2
Description: as §1, §2

mitochondria = assay: Cytochrome c release from isolated mitochondria (ELISA); assay type: biochemical, mouse; conditions: BIDBH3 at 10 μM; other concentrations not stated
Method: Mouse liver mitochondria were isolated from age-matched wt or Bak −/− mice. Livers were diced, subjected to Dounce rotary Teflon pestle disruption, then homogenized using a Kinematica Polytron homognizer. Following suspension in isolation buffer (250 mM sucrose, 10 mM Tris-HCl pH 7.4, 0.1 mM EGTA), mitochondria were isolated by differential centrifugation steps, followed by two washes in isolation buffer. Mitochondria from FL5.12 cells were isolated by cell disruption followed by differential centrifugation and washing as above. Cell disruption was performed either by a Kinematika Polytron homogenizer or by a combination of Dounce homogenization followed by 6-10 expulsions through a 27 gauge needle.
Mitochondria at a protein concentration of 0.5 mg/ml were treated at room temperature in experimental buffer (125 mM KCl, 10 mM Tris-MOPS pH 7.4, 5 mM glutamate, 2.5 mM malate, 1 mM KPO4, 10 µM EGTA-Tris pH 7.4). Percent release was quantitated using a colorimetric ELISA (MCTC0, R&D Systems). In all experiments, treatments with DMSO were used as a control for solvent activity.

[3] = Circular dichroism, α-helical content; assay type: physicochemical; conditions: CD, 50 mM potassium phosphate pH 7, 20° C.
Method: Circular dichroism (CD) spectra were obtained on a Jasco J-710 spectropolarimeter at 20° C. using the following standard measurement parameters: wavelength, 190-260 nm; step resolution, 0.5 nm; speed, 20 nm/sec; accumulations, 10; response, 1 sec; band width, 1 nm; path length, 0.1 cm. Stock solutions of peptide were dissolved in deionized water and concentrations determined by amino acid analysis. Samples were then diluted in 50 mM potassium phosphate pH 7 to a calculated final concentration of 50 μM. The CD spectrum of each sample was measured in triplicate and a background spectrum of diluent alone was subtracted. For comparison, the subtracted CD spectra were normalized to 35 μM based on repeat peptide concentration determination by amino acid analysis of the diluted peptide solutions. The α-helical content of each peptide was calculated by dividing the mean residue ellipticity [q]222obs by the reported [q]222obs for a model helical decapeptide (Yang et al., 1986).

MCL-1 = MCL-1 (Homo sapiens, UniProt Q07820); assay: MCL-1 binding
[4] = system: cell line from B-cell malignancies not dependent on BCL-2 expression; assay: BCL-2 independent B-cell malignancy cell line; assay type: cell-based, mouse; conditions: BCL-2 expression turned off
[5] = system: BCL-2 dependent cancer cell line; assay: BCL-2 dependent cell line from triply transgenic leukemic mouse; assay type: cell-based; conditions: BCL-2 transgene expression eliminated
[6] = system: B-cell lymphoblastic leukemia; assay: Doxycycline treatment of tet-BCL-2/MMTV-tTA/Eμ-myc leukemic mice; assay type: in vivo, mouse; conditions: doxycycline 500 μg/ml in drinking water
Description: Using standard recombinant DNA technology, the tet-BCL-2 allele was targeted to the DNA methyltransferase 1 locus (FIG. 10). By crossing the new mouse line with the MMTV-tTA line (Jackson Labs) mice were generated which conditionally overexpress BCL-2 in epithelial cells and in B-lineage lymphocytes. Administration of doxycycline successfully suppresses BCL-2 overexpression in these animals. When these mice are crossed with mice expressing myc in the B-lymphocyte lineage (Eμ-myc mice, Jackson Labs) mice which uniformly have B-cell lymphoblastic leukemia were obtained.
To examine the effect of removing BCL-2 expression form the leukemia cells, the effects of doxycycline treatment in a cohort of 28 mice were examined. By genotype, each of the 28 mice contained the tet-BCL-2, the MMTV-tTA, and the Eμ-myc alleles. […] At 4-5 weeks of age, half were treated with doxycycline (500 μg/ml) in drinking water, and half were left untreated. The WBC was measured by hemocytometer using 2 μl blood from tail which was lysed with 0.3% saponin and stained with Hoechst 33258.

VIPMAAVKQALREAGDEFEL [BCLXBH3]
displacement of BIDBH3 from BCL-2 (GST-BCL-2 [1]): did not bind detectably to BCL-2 or displace BIDBH3 from BCL-2 | binding to BCL-2 (GST-BCL-2 [2]): did not bind detectably | cytochrome c release by peptide or protein alone (mitochondria): did not cause cytochrome c release | % Helicity (222 nm) [3]: 3.9%

CSCC[C@H](NC(=O)[C@H](CCCN=C(N)N)NC(=O)[C@H](CCCN=C(N)N)NC(=O)[C@H](CC(C)C)NC(=O)[C@H](CCC(=O)O)NC(=O)[C@H](CCCN=C(N)N)NC(=O)CNC(=O)[C@H](Cc1ccc(O)cc1)NC(=O)[C@H](CCCN=C(N)N)NC(=O)[C@H](CCC(N)=O)NC(=O)[C@H](C)NC(=O)[C@H](C)NC(=O)[C@H](Cc1c[nH]c2ccccc12)NC(=O)[C@@H](N)CC(C)C)C(=O)N[C@@H](CO)C(=O)N[C@@H](CC(=O)O)C(=O)N[C@@H](CCC(=O)O)C(=O)N[C@@H](Cc1ccccc1)C(=O)N[C@@H](CCC(=O)O)C(=O)NCC(=O)N[C@@H](CO)C(=O)N[C@@H](Cc1ccccc1)C(=O)N[C@@H](CCCCN)C(=O)NCC(=O)N[C@@H](CC(C)C)C(=O)O [mBADBH3]
IC50 (GST-BCL-2 [1]; 25 nM fluoresceinated BIDBH3, 1 μM GST-BCL-2, unlabelled peptide titrated, read-out: IC50 (nM), BID Displacement): 173 nM | Kd (GST-BCL-2 [2]; 25 nM fluoresceinated peptide, GST-BCL-2 titration, 37° C.): 39 nM | Kd (MCL-1): > 2600 nM

C[C@H]1c2cccc(O)c2C(=O)C2=C(O)[C@]3(O)C(=O)C(C(N)=O)=C(O)[C@@H](N(C)C)[C@@H]3[C@@H](O)[C@@H]21 [doxycycline]
cell death on doxycycline [4]: did not induce cell death | cell survival on doxycycline treatment [5]: the cell line dies | leukemia outcome [6]: remission of the leukemia
